Source: publication PMC11594422
No constants are given. Whether binding was seen depends on the method and setting. In cells and extracts the contact can be indirect. Tags and fused reporters may be left off the sequences shown.

Chains of the proteins cited; added tags and fusions are not shown.
UniProt P26358: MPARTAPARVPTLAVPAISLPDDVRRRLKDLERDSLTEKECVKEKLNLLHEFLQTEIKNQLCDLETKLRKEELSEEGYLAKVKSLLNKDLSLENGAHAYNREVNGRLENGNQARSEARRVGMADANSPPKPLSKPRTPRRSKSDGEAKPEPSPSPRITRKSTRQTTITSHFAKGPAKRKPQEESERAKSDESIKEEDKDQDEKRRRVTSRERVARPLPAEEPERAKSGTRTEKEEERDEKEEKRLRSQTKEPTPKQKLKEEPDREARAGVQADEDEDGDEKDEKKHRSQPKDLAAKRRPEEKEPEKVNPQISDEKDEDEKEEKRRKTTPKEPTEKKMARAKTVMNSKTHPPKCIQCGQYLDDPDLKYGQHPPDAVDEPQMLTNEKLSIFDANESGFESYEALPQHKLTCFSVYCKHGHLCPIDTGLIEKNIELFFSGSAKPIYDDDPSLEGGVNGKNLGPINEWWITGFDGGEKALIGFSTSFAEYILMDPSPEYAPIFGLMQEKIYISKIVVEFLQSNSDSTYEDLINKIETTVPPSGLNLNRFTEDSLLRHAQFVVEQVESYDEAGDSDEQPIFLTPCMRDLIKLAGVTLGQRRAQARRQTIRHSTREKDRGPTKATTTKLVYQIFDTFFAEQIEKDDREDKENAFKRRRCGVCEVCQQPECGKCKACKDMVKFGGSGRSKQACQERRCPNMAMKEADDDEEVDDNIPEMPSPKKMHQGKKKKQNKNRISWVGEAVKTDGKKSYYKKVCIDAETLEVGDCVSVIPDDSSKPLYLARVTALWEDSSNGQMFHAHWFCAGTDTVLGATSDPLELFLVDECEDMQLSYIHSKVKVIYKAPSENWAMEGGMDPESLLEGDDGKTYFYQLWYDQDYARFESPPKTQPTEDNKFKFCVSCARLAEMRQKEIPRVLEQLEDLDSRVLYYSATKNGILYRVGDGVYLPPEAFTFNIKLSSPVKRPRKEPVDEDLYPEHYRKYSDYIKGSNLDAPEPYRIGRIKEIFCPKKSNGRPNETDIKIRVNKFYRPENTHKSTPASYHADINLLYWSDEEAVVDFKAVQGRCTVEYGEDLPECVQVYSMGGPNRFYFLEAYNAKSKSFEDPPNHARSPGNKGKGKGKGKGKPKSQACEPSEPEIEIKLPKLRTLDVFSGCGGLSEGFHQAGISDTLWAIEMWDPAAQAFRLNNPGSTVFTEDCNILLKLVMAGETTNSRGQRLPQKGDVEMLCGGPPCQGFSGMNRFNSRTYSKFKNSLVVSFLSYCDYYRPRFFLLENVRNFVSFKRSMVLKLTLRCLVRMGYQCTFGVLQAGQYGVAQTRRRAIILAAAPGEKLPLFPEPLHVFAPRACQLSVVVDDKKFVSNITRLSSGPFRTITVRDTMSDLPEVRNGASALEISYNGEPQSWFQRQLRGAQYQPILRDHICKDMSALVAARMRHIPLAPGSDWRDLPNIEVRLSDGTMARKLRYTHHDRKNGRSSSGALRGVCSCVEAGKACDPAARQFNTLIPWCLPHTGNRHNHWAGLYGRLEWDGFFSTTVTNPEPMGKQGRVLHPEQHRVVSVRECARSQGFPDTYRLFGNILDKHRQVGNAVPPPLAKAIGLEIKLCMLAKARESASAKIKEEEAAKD

Biological target: DNA methyltransferase 1 (DNMT1) (human (endogenous in HEK293T)) (UniProt P26358)
Experiment: co-IP; HEK293T lysates in WB/IP buffer (50 mM Tris pH 7.5, 1% Triton X-100, 150 mM NaCl) 48 h after transfection; primary antibody 2 h at 4°C, protein G agarose overnight at 4°C, western blot; anti-DNMT1 antibody for NS1, NS2 and NS1-70 (Fig 5B, 6D), IP antibody of Fig 5A not told; with or without HBoV transfection (pHBoV-NS1KO or pHBoV-NP1KO)

B1: FLAG tagged NP1 of human bocavirus 1 (FLAG-NP1) (protein, UniProt Q3YPH5 1-219)
chain: MSSGNMKDKHRSYKRKGSPERGERKRHWQTTHHRSRSRSPIRHSGERGSGSYHQEHPISHLSSCTASKTSDQVMKTRESTSGKKDNRTNPYTVFSQHRASNPEAPGWCGFYWHSTRIARDGTNSIFNEMKQQFQQLQIDNKIGWDNTRELLFNQKKTLDQKYRNMFWHFRNNSDCERCNYWDDVYRRHLANVSSQTEADEITDEEMLSAAESMEADASN
  binding: no binding
